# These are yes or no findings as the source states them, for the method shown. Binding seen in cells or lysates may run through a third protein. Binding can be weak; no strength is given. For some assays here: Sequences can lack the tags named with a protein.
# Amino acid sequences for entries named in this document (tags omitted). A change or cut given only in a name is not applied to a line headed by its entry. Residues count along the entry.
# UniProt P05067: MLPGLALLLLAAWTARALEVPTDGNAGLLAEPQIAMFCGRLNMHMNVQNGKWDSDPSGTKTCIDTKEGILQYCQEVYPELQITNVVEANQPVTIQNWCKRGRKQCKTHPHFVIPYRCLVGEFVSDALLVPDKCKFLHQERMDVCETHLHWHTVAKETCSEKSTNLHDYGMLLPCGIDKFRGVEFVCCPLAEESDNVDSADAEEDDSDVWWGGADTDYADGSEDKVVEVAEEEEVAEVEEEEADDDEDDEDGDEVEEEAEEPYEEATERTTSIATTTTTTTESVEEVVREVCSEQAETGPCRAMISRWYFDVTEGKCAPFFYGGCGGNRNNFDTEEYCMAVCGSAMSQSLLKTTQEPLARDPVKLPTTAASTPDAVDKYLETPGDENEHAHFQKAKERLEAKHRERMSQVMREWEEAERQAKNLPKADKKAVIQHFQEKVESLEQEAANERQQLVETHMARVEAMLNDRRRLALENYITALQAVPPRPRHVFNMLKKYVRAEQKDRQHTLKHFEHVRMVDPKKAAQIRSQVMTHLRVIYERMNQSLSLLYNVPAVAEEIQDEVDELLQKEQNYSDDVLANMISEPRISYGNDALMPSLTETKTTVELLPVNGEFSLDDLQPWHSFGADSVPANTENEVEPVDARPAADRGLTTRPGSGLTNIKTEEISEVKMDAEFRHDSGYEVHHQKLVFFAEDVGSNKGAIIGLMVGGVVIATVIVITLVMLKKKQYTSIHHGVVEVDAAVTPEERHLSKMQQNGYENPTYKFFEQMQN
# UniProt Q13467, residues 27-585: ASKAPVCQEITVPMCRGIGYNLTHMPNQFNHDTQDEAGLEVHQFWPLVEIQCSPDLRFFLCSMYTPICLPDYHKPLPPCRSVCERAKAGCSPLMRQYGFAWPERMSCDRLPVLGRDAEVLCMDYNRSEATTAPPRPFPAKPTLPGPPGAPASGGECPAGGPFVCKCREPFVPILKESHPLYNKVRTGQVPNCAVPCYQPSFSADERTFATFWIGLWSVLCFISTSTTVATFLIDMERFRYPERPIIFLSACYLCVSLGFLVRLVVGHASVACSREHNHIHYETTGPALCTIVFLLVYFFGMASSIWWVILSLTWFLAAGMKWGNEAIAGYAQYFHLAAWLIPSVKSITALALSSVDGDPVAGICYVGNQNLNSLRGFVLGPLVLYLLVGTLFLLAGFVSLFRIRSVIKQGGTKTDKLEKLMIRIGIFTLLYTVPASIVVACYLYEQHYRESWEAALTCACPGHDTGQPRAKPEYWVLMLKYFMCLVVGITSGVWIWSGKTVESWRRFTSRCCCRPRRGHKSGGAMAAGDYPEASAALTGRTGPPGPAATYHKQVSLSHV
# Assays:
# [1] = target: T1, Drosophila APP Like (APPL), FLAG-tagged (Drosophila melanogaster) (UniProt P14599); assay: co-IP; Drosophila tagged proteins co-expressed in HEK293T cells; lysis in 150 mM NaCl, 50 mM Tris/HCl pH 7.5, 10% glycerol, 0.4% Nonidet P-40; IP with anti-FLAG conjugated to Dynabeads M-270, 1 h at 4°C (reverse IP by the partner's tag); Western blot
# T1 sequence: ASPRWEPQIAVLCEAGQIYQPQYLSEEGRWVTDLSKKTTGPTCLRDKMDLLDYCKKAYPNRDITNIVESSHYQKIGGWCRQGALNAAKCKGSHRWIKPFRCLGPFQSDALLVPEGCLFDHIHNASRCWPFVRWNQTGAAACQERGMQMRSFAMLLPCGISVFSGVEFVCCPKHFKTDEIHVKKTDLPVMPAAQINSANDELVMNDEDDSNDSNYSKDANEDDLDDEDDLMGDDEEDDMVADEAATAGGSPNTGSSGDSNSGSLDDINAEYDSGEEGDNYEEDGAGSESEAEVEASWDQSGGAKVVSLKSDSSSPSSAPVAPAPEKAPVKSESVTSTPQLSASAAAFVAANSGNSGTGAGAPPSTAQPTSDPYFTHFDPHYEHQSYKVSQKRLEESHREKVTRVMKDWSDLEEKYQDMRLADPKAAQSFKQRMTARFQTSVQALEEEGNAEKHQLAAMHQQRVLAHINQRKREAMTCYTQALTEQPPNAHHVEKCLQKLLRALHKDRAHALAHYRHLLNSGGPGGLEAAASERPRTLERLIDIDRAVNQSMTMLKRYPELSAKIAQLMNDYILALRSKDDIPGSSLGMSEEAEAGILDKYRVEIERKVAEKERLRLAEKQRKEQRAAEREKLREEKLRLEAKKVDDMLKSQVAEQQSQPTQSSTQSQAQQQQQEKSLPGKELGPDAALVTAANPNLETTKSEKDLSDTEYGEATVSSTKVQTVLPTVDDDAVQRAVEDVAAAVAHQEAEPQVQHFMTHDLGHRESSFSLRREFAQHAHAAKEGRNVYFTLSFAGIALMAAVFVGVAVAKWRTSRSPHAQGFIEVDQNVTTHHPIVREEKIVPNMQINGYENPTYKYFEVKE
# [2] = target: membrane tethered C-terminus of human APP (APP-C99), FLAG-tagged (human) (UniProt P05067); assay: co-IP; Drosophila and human (or human and human) tagged proteins co-expressed in HEK293 cells; lysis in Tris pH 7.4, 150 mM NaCl, 1 mM EDTA, 0.5% NP40, 1 mM DTT; 1 µg immunoprecipitating antibody 1 h at 4°C, Protein G sepharose overnight; Western blot
Substance,binding [1],binding [2]
"Drosophila Van Gogh/Strabismus (Vang), Myc-tagged",binds,
"human Frizzled 5 (Fzd5), V5-tagged (from UniProt Q13467 27-585) (receptor)",,binds
